According to article PMC8864472:
Results are given in words; binding and its absence hold for the method and conditions named. Binding seen in cells or lysates may run through a third protein. Some results given as binding are weak or reduced against the parent protein; the word gives no strength. For some assays here: Sequences can lack the tags named with a protein.

Amino acid sequences for entries named in this document (tags omitted). Residues count along the entry.
UniProt Q8IY17: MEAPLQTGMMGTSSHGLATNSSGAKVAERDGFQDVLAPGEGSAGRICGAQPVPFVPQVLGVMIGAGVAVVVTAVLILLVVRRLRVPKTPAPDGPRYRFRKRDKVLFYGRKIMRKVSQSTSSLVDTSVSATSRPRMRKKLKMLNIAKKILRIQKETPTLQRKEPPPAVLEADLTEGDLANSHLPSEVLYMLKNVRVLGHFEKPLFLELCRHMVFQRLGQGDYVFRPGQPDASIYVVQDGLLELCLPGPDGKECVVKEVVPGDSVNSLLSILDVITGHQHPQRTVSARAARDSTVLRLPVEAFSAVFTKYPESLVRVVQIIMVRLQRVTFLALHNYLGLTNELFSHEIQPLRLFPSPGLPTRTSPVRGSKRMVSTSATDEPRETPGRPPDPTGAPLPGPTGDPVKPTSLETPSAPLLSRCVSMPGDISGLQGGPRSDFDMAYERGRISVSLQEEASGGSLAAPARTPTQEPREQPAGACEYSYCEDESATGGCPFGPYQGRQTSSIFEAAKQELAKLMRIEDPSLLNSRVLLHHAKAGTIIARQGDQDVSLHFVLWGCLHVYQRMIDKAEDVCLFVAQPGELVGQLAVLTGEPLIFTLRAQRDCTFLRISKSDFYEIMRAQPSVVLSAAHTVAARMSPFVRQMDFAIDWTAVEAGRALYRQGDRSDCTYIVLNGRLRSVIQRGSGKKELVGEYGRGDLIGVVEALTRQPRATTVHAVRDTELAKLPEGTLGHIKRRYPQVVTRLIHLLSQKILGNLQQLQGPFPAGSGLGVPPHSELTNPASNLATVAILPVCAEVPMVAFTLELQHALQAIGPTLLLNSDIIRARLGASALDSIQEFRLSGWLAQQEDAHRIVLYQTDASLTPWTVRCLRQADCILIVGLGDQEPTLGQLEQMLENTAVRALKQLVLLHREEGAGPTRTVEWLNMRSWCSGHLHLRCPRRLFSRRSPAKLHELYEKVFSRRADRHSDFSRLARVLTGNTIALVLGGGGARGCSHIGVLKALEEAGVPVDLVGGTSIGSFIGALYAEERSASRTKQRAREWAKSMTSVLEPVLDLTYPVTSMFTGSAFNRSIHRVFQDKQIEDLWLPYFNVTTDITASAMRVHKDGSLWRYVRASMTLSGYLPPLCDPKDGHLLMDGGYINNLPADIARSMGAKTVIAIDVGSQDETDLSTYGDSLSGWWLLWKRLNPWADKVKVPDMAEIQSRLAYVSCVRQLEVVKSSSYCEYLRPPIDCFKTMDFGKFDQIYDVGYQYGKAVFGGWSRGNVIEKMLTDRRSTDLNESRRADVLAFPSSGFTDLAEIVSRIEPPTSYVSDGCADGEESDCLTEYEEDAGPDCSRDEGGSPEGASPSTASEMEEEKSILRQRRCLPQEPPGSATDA
UniProt P11021, residues 19-654: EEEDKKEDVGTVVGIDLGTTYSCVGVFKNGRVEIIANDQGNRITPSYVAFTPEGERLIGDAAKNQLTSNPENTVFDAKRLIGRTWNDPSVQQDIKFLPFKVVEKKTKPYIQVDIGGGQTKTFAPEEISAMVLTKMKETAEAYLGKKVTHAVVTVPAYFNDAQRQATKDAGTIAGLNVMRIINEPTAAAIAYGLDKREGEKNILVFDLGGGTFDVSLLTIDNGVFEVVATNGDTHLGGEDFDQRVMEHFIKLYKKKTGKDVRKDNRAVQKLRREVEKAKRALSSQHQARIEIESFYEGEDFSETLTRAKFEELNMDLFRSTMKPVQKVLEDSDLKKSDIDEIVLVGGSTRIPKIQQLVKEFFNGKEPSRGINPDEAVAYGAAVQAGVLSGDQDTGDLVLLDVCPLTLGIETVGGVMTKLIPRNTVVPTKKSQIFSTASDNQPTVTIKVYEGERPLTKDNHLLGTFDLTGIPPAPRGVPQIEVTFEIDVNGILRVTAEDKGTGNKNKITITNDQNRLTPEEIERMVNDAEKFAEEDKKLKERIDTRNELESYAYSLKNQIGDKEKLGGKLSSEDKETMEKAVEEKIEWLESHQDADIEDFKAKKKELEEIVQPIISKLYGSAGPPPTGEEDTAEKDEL
UniProt P07237, residues 18-508: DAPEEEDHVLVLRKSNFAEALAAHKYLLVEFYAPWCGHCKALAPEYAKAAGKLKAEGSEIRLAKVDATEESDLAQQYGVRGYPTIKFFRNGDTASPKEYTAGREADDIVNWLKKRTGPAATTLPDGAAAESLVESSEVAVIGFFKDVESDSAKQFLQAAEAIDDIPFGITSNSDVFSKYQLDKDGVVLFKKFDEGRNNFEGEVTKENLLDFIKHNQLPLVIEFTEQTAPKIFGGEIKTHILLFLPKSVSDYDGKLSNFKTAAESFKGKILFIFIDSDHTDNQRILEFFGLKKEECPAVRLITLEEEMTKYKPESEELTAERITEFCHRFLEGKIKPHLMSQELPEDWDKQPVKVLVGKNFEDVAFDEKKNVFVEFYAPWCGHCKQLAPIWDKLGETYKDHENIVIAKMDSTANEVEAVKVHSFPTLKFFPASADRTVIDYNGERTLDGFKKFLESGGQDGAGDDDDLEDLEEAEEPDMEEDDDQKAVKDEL
UniProt P08754: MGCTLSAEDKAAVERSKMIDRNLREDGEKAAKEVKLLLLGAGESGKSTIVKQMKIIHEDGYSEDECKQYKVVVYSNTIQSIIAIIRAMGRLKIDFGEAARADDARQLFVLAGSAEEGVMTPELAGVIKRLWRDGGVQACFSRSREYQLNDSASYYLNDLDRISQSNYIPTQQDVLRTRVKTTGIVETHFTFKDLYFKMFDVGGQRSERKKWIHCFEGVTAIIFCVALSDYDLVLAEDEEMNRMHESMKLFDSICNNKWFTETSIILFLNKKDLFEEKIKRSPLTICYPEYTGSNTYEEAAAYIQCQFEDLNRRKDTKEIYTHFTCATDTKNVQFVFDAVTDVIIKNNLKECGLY

T1: PLD3 (human) (UniProt Q8IV08)
T1 sequence: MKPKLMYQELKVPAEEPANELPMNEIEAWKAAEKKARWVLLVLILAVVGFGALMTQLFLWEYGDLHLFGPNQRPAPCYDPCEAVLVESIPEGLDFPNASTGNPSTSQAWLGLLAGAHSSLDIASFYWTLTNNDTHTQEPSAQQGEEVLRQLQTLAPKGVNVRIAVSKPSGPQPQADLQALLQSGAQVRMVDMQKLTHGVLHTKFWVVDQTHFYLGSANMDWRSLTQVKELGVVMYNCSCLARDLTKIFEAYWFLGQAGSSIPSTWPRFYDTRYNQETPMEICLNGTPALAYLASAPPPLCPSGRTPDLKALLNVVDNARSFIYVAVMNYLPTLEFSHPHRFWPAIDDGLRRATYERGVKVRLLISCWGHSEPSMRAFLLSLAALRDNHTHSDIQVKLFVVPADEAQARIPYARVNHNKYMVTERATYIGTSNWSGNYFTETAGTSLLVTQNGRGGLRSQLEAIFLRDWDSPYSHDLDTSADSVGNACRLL

T2: PLD6 (human) (UniProt Q8N2A8)
T2 sequence: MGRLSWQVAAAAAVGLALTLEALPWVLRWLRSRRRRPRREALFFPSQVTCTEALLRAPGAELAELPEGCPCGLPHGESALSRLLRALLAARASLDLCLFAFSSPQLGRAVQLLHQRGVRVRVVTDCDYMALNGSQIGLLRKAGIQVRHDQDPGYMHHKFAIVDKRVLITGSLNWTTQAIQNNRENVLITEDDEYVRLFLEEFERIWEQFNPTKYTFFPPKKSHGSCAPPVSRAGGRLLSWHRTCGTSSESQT

T3: SFB-tagged PLD5 (human) (UniProt Q8N7P1)
T3 sequence: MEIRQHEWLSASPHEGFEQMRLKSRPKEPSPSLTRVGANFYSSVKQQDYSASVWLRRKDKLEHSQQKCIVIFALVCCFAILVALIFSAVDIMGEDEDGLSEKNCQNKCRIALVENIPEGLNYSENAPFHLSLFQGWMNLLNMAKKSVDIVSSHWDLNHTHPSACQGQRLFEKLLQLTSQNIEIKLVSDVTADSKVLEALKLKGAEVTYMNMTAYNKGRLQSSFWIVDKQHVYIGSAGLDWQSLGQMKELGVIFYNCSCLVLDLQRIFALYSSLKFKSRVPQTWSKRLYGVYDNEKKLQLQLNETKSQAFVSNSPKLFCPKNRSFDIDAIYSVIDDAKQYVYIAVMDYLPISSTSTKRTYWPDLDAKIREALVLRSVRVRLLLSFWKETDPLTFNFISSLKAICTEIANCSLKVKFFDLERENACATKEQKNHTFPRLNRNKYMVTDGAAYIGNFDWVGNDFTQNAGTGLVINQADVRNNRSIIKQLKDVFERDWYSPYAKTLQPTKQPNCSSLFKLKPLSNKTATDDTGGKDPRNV

T4: PLD4 (human) (UniProt Q96BZ4)
T4 sequence: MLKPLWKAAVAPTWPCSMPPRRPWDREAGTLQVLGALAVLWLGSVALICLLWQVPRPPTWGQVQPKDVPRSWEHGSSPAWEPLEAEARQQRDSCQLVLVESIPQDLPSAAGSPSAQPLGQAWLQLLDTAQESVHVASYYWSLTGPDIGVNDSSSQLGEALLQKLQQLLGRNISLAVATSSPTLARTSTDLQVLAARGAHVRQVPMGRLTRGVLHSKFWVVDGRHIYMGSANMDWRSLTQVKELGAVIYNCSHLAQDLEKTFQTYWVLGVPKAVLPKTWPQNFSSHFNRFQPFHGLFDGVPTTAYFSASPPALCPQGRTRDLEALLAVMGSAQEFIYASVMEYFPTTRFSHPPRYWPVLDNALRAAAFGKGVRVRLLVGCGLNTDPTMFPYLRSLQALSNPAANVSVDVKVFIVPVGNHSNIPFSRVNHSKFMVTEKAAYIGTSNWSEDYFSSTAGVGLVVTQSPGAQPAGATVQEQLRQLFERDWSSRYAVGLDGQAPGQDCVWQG


Columns and labels:
Assay in all cases: pull-down; HEK293T cells transfected with constructs of both tagged proteins; pull-down with S protein beads; Western blot
PLD3 (human) = molecular target: T1, PLD3 (human)
PLD6 (human) = molecular target: T2, PLD6 (human)
SFB-tagged PLD5 (human) = molecular target: T3, SFB-tagged PLD5 (human)
PLD4 (human) = molecular target: T4, PLD4 (human)

Molecule | binding (PLD6 (human)) | binding (SFB-tagged PLD5 (human)) | further results
PNPLA6 (from UniProt Q8IY17 1-1375) |  |  | binding (PLD3 (human)): binds
HSPA5 (from UniProt P11021 19-654) | binds |  | 
P4HB (from UniProt P07237 18-508) | binds |  | 
HA-tagged GNAI3 (from UniProt P08754 1-354) |  | binds | 
ACOT9 (protein, UniProt Q9Y305 22-439) LTQGPQNPKKQGIFHIHEVRDKLREIVGASTNWRDHVKAMEERKLLHSFLAKSQDGLPPRRMKDSYIEVLLPLGSEPELREKYLTVQNTVRFGRILEDLDSLGVLICYMHNKIHSAKMSPLSIVTALVDKIDMCKKSLSPEQDIKFSGHVSWVGKTSMEVKMQMFQLHGDEFCPVLDATFVMVARDSENKGPAFVNPLIPESPEEEELFRQGELNKGRRIAFSSTSLLKMAPSAEERTTIHEMFLSTLDPKTISFRSRVLPSNAVWMENSKLKSLEICHPQERNIFNRIFGGFLMRKAYELAWATACSFGGSRPFVVAVDDIMFQKPVEVGSLLFLSSQVCFTQNNYIQVRVHSEVASLQEKQHTTTNVFHFTFMSEKEVPLVFPKTYGESMLYLDGQRHFNSMSGPATLRKDYLVEP | binds |  | 
ERLEC1 (protein, UniProt Q96DZ1 34-483) LPQLSDDIPFRVNWPGTEFSLPTTGVLYKEDNYVIMTTAHKEKYKCILPLVTSGDEEEEKDYKGPNPRELLEPLFKQSSCSYRIESYWTYEVCHGKHIRQYHEEKETGQKINIHEYYLGNMLAKNLLFEKEREAEEKEKSNEIPTKNIEGQMTPYYPVGMGNGTPCSLKQNRPRSSTVMYICHPESKHEILSVAEVTTCEYEVVILTPLLCSHPKYRFRASPVNDIFCQSLPGSPFKPLTLRQLEQQEEILRVPFRRNKEEDLQSTKEERFPAIHKSIAIGSQPVLTVGTTHISKLTDDQLIKEFLSGSYCFRGGVGWWKYEFCYGKHVHQYHEDKDSGKTSVVVGTWNQEEHIEWAKKNTARAYHLQDDGTQTVRMVSHFYGNGDICDITDKPRQVTVKLKCKESDSPHAVTVYMLEPHSCQYILGVESPVICKILDTADENGLLSLPN | binds |  | 
HA-tagged UNC45A (protein, UniProt Q9H3U1 1-944) MTVSGPGTPEPRPATPGASSVEQLRKEGNELFKCGDYGGALAAYTQALGLDATPQDQAVLHRNRAACHLKLEDYDKAETEASKAIEKDGGDVKALYRRSQALEKLGRLDQAVLDLQRCVSLEPKNKVFQEALRNIGGQIQEKVRYMSSTDAKVEQMFQILLDPEEKGTEKKQKASQNLVVLAREDAGAEKIFRSNGVQLLQRLLDMGETDLMLAALRTLVGICSEHQSRTVATLSILGTRRVVSILGVESQAVSLAACHLLQVMFDALKEGVKKGFRGKEGAIIVDPARELKVLISNLLDLLTEVGVSGQGRDNALTLLIKAVPRKSLKDPNNSLTLWVIDQGLKKILEVGGSLQDPPGELAVTANSRMSASILLSKLFDDLKCDAERENFHRLCENYIKSWFEGQGLAGKLRAIQTVSCLLQGPCDAGNRALELSGVMESVIALCASEQEEEQLVAVEALIHAAGKAKRASFITANGVSLLKDLYKCSEKDSIRIRALVGLCKLGSAGGTDFSMKQFAEGSTLKLAKQCRKWLCNDQIDAGTRRWAVEGLAYLTFDADVKEEFVEDAAALKALFQLSRLEERSVLFAVASALVNCTNSYDYEEPDPKMVELAKYAKQHVPEQHPKDKPSFVRARVKKLLAAGVVSAMVCMVKTESPVLTSSCRELLSRVFLALVEEVEDRGTVVAQGGGRALIPLALEGTDVGQTKAAQALAKLTITSNPEMTFPGERIYEVVRPLVSLLHLNCSGLQNFEALMALTNLAGISERLRQKILKEKAVPMIEGYMFEEHEMIRRAATECMCNLAMSKEVQDLFEAQGNDRLKLLVLYSGEDDELLQRAAAGGLAMLTSMRPTLCSRIPQVTTHWLEILQALLLSSNQELQHRGAVVVLNMVEASREIASTLMESEMMEILSVLAKGDHSPVTRAAAACLDKAVEYGLIQPNQDGE |  | binds | 
HA-tagged PCCB (protein, UniProt P05166 29-539) CSQATSVNERIENKRRTALLGGGQRRIDAQHKRGKLTARERISLLLDPGSFVESDMFVEHRCADFGMAADKNKFPGDSVVTGRGRINGRLVYVFSQDFTVFGGSLSGAHAQKICKIMDQAITVGAPVIGLNDSGGARIQEGVESLAGYADIFLRNVTASGVIPQISLIMGPCAGGAVYSPALTDFTFMVKDTSYLFITGPDVVKSVTNEDVTQEELGGAKTHTTMSGVAHRAFENDVDALCNLRDFFNYLPLSSQDPAPVRECHDPSDRLVPELDTIVPLESTKAYNMVDIIHSVVDEREFFEIMPNYAKNIIVGFARMNGRTVGIVGNQPKVASGCLDINSSVKGARFVRFCDAFNIPLITFVDVPGFLPGTAQEYGGIIRHGAKLLYAFAEATVPKVTVITRKAYGGAYDVMSSKHLCGDTNYAWPTAEIAVMGAKGAVEIIFKGHENVEAAQAEYIEKFANPFPAAVRGFVDDIIQPSSTRARICCDLDVLASKKVQRPWRKHANIPL |  | binds | 
HA-tagged TTC1 (protein, UniProt Q99614 1-292) MGEKSENCGVPEDLLNGLKVTDTQEAECAGPPVPDPKNQHSQSKLLRDDEAHLQEDQGEEECFHDCSASFEEEPGADKVENKSNEDVNSSELDEEYLIELEKNMSDEEKQKRREESTRLKEEGNEQFKKGDYIEAESSYSRALEMCPSCFQKERSILFSNRAAARMKQDKKEMAINDCSKAIQLNPSYIRAILRRAELYEKTDKLDEALEDYKSILEKDPSIHQAREACMRLPKQIEERNERLKEEMLGKLKDLGNLVLRPFGLSTENFQIKQDSSTGSYSINFVQNPNNNR |  | binds | 
PLD3 (protein, UniProt Q8IV08 1-490) MKPKLMYQELKVPAEEPANELPMNEIEAWKAAEKKARWVLLVLILAVVGFGALMTQLFLWEYGDLHLFGPNQRPAPCYDPCEAVLVESIPEGLDFPNASTGNPSTSQAWLGLLAGAHSSLDIASFYWTLTNNDTHTQEPSAQQGEEVLRQLQTLAPKGVNVRIAVSKPSGPQPQADLQALLQSGAQVRMVDMQKLTHGVLHTKFWVVDQTHFYLGSANMDWRSLTQVKELGVVMYNCSCLARDLTKIFEAYWFLGQAGSSIPSTWPRFYDTRYNQETPMEICLNGTPALAYLASAPPPLCPSGRTPDLKALLNVVDNARSFIYVAVMNYLPTLEFSHPHRFWPAIDDGLRRATYERGVKVRLLISCWGHSEPSMRAFLLSLAALRDNHTHSDIQVKLFVVPADEAQARIPYARVNHNKYMVTERATYIGTSNWSGNYFTETAGTSLLVTQNGRGGLRSQLEAIFLRDWDSPYSHDLDTSADSVGNACRLL |  |  | binding (PLD3 (human)): binds
TMX3 (protein, UniProt Q96JJ7 25-454) KGFVEDLDESFKENRNDDIWLVDFYAPWCGHCKKLEPIWNEVGLEMKSIGSPVKVGKMDATSYSSIASEFGVRGYPTIKLLKGDLAYNYRGPRTKDDIIEFAHRVSGALIRPLPSQQMFEHMQKRHRVFFVYVGGESPLKEKYIDAASELIVYTYFFSASEEVVPEYVTLKEMPAVLVFKDETYFVYDEYEDGDLSSWINRERFQNYLAMDGFLLYELGDTGKLVALAVIDEKNTSVEHTRLKSIIQEVARDYRDLFHRDFQFGHMDGNDYINTLLMDELTVPTVVVLNTSNQQYFLLDRQIKNVEDMVQFINNILDGTVEAQGGDSILQRLKRIVFDAKSTIVSIFKSSPLMGCFLFGLPLGVISIMCYGIYTADTDGGYIEERYEVSKSENENQEQIEESKEQQEPSSGGSVVPTVQEPKDVLEKKKD |  |  | binding (PLD4 (human)): binds
